Source: PubChem BioAssay AID602196 (INSERM, 2012)
Shown is one part, drawn at random, of about 23,000 deposited reagents. 455 of all reagents (2%) were called active. 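Active includes both protection and sensitisation; some change values fall well beyond the stated -50 to +50 range.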 Entries without a mark were called inactive. Not all columns of the deposit are shown. Not stated in the record: the amount of reagent.

Screen: 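Modifiers of cisplatin sensitivity in A549 cells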
Cell system: human A549 lung cancer cells
Knock-down reagent: siRNA pair against human genes
Timing: 48 h transfection before cisplatin; time from cisplatin to read-out not stated
Treatment: cisplatin at a dose killing half of control-siRNA cells; exact dose and duration not given
Measurement: 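Shift in cisplatin death relative to control siRNA, from -50 (all cells die) to +50 (no cells die); siRNAs harmful on their own scored 0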
Reading the numbers: two-siRNA summed score (-2 to +2): higher = both siRNAs protect from cisplatin killing; -2 means both sensitise
Active means: 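siRNAs harmful alone (LDH or WST-1) get 0; others get +1 for less and -1 for more cisplatin killing; genes are active when the two siRNAs give the same sign, summing to ±2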
Meaning of the calls: active = both siRNAs shift cisplatin killing the same way; inactive = no consistent shift, or siRNA harmful alone

Knock-down of OR2D2 gave: two-siRNA summed score (-2 to +2) = -1. EDIL3 gave two-siRNA summed score (-2 to +2) = 0. Against PLCD1, the entry reads two-siRNA summed score (-2 to +2) = -1. Depletion of CDKN3 gave: two-siRNA summed score (-2 to +2) = 0. After knock-down of GCM2 the results were two-siRNA summed score (-2 to +2) = 0. For LOC402388, the entry reads two-siRNA summed score (-2 to +2) = 0.

With knock-down of ELMO2 the results were two-siRNA summed score (-2 to +2) = 0. MYH4 gave two-siRNA summed score (-2 to +2) = 0. NOC3L scored two-siRNA summed score (-2 to +2) = 0. ANXA9 scored two-siRNA summed score (-2 to +2) = 0. LOC338731 scored two-siRNA summed score (-2 to +2) = -1. LOC128499 showed two-siRNA summed score (-2 to +2) = 0.

Depletion of LINC02120 gave: two-siRNA summed score (-2 to +2) = 0. Depletion of TTC38 resulted in: two-siRNA summed score (-2 to +2) = 0. For LOC391427, the values are two-siRNA summed score (-2 to +2) = 1. With knock-down of STPG1, the screen gave two-siRNA summed score (-2 to +2) = 0. Silencing of PROC gave: two-siRNA summed score (-2 to +2) = 0. After knock-down of STAC, the record shows two-siRNA summed score (-2 to +2) = 1.

CD93 scored two-siRNA summed score (-2 to +2) = -1. LOC440593 gave two-siRNA summed score (-2 to +2) = 0. With knock-down of LOC442598, the record shows two-siRNA summed score (-2 to +2) = 0. Against HSPA1B, the entry reads two-siRNA summed score (-2 to +2) = 0. After knock-down of CENPBD2P, the record shows two-siRNA summed score (-2 to +2) = 0. After knock-down of KCNQ4 the results were two-siRNA summed score (-2 to +2) = 0.

Against OGG1 the deposit lists two-siRNA summed score (-2 to +2) = -1. With knock-down of TDRKH, the screen gave two-siRNA summed score (-2 to +2) = 0. Knock-down of C16orf89 resulted in: two-siRNA summed score (-2 to +2) = 0. Depletion of LOC388140 resulted in: two-siRNA summed score (-2 to +2) = 0. LOC442649 gave two-siRNA summed score (-2 to +2) = 1. With knock-down of MYO1C, the record shows two-siRNA summed score (-2 to +2) = -1.

For LINC00928 the deposit lists two-siRNA summed score (-2 to +2) = 0.

Reprinted from above (3 entries):
OR2D2 → two-siRNA summed score (-2 to +2) = -1
EDIL3 → two-siRNA summed score (-2 to +2) = 0
PLCD1 → two-siRNA summed score (-2 to +2) = -1
